Data as given in PubChem BioAssay AID1508588 (Peter MacCallum Cancer Centre, 2020)
Assay: 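Genome-wide search for knock-downs that heighten vemurafenib action in melanoma cells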 (primary screen). System: human WM266.4 melanoma cells (BRAF V600 mutant). Reagents: siRNA pool against human genes, 40 nM. Time to read-out: 96 h from transfection to read-out. Conditions: vemurafenib 300 nM (about IC25), added 48 h after transfection, for 48 h; comparison arm got DMSO vehicle only. Detection: 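Ratios to non-targeting siRNA for cell gain, counted as DAPI nuclei after minus before drug and averaged over two replicates, and for absorbance-read medium lactate per cell; both binned into fold-change classes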. Direction: cell gain with vemurafenib: higher = more cell gain than with non-targeting siRNA; lactate per cell with vemurafenib: higher = more lactate made per cell. Call rule: 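a knock-down counts as enhancing when its fold-change classes with vehicle and with vemurafenib, taken together, show a stronger drug effect on cell gain or lactate per cell; exact class pairs not stated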. Calls: active = enhances vemurafenib effect; inactive = no enhancement seen.
The deposit covers about 18,000 reagents; this is an unselected part. 790 of all reagents (4.4%) were called active. 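Calls rest on a combination of fold-change classes in drug and vehicle arms, not all shown here.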

gene	cell gain with vemurafenib	lactate per cell with vemurafenib	call
MRPS18A	0.72	0.86	inactive
RIF1	0.73	0.77	inactive
RAB3C	0.22	1.14	inactive
ADAMDEC1	0.53	0.45	inactive
TNFSF10	0.83	0.82	inactive
CHLSN	0.58	1.68	inactive
PRLHR	0.86	0.56	inactive
GATA2	0.29	0.82	inactive
COQ10B	0.76	2.2	inactive
CHCHD10	1.05	0.53	active
SNRPD1	-0.03	0.84	inactive
BLTP2	0.45	0.74	inactive
CSPP1	0.5	0.86	inactive
VNN1	0.6	1	inactive
C12orf57	0.63	0.93	inactive
TMEM178A	1.02	0.97	inactive
GATAD2B	0.11	0.78	inactive
DCPH1	-0.27	1.7	inactive
RPS6KA6	0.64	1.23	inactive
PRM3	0.37	0.48	active
TAGLN	0.32	1.21	inactive
SBNO1	0.42	1.52	inactive
CIART	0.22	0.92	inactive
RABEPK	0.38	1.04	inactive
RBM12	0.12	1.34	inactive
ALG11	1.05	0.72	inactive
MLLT3	0.9	1.27	inactive
BEND5	0.7	1.08	inactive
DOLK	0.88	0.95	inactive
ADAM7	0.37	0.82	inactive
DNAL4	0.65	0.97	inactive
CREBZF	0.48	1.64	inactive
PPP3CA	0.86	1.11	inactive
PIGA	1.18	0.68	inactive
KDM5A	0.74	0.48	inactive
USP11	0.46	0.97	inactive
MTR	0.55	0.5	inactive
SOFU1	0.84	1.05	inactive

Only “cell gain with vemurafenib”, for 11 of the entries above:
SNRPD1	-0.03
BLTP2	0.45
CSPP1	0.5
VNN1	0.6
C12orf57	0.63
TMEM178A	1.02
GATAD2B	0.11
DCPH1	-0.27
RPS6KA6	0.64
PRM3	0.37
TAGLN	0.32

The list goes on:
gene	cell gain with vemurafenib	lactate per cell with vemurafenib	call
FAM229B	0.07	1.86	inactive
RARB	0.38	1.17	inactive
RAB4B	-0.05	2.16	inactive
RFLNB	0.71	0.55	inactive
SACS	0.28	1.27	inactive
USO1	0.83	1.02	inactive
CACNG8	0.38	1.27	inactive
GPR176	0.68	0.88	inactive
NPDC1	0.4	1.47	inactive
FAM43A	0.86	1.17	inactive
QPCTL	0.92	0.68	inactive
LPCAT2	0.4	0.86	inactive
SIDT2	1.03	0.59	inactive
CLEC4A	0.11	0.86	inactive
RRP15	0.42	0.75	inactive
AIFM2	0.08	2.62	inactive
DCAF1	0.04	1.71	inactive
GPRC5B	0.28	2.9	inactive
MSRB2	0.57	1.5	inactive
CD1E	0.77	0.83	inactive
LSR	0.12	0.94	inactive
RAPH1	0.59	0.48	inactive
ZNF165	0.74	1.07	inactive
SOX30	0.54	0.96	inactive
RGS1	0.02	0.5	inactive
SCYL1	0.92	1.06	inactive
ZP4	0.63	0.63	inactive
PAN3	1.06	0.57	inactive
SSBP3	0.29	1.6	inactive
RIOX1	0.46	0.31	inactive
DNAAF8	0.51	0.39	inactive
ADAMTS15	1.04	0.64	inactive
CEP97	1.17	0.43	inactive
NMT2	0.48	0.68	inactive
NMS	0.32	2.98	inactive
GSX1	0.05	1.82	inactive
UBC	-0.04	2.12	inactive
RPS29	-0.16	0.36	inactive
TUBD1	0.44	0.78	inactive
SAMHD1	0.7	0.69	inactive
ST20-AS1	0.59	1.52	inactive
CCZ1	0.79	0.41	active
ZNF92	0.91	0.86	inactive
PRKACG	0.32	0.66	inactive
CMTM4	0.39	0.73	inactive
FOXRED2	0.74	0.26	inactive
